Results are given in words; binding and its absence hold for the method and conditions named. Some entries that bind do so weakly or less than the wild type.

Sequences of proteins named here, by UniProt entry; tags and fusion partners are left off. Residues count along the entry.
UniProt P08581, residues 25-932: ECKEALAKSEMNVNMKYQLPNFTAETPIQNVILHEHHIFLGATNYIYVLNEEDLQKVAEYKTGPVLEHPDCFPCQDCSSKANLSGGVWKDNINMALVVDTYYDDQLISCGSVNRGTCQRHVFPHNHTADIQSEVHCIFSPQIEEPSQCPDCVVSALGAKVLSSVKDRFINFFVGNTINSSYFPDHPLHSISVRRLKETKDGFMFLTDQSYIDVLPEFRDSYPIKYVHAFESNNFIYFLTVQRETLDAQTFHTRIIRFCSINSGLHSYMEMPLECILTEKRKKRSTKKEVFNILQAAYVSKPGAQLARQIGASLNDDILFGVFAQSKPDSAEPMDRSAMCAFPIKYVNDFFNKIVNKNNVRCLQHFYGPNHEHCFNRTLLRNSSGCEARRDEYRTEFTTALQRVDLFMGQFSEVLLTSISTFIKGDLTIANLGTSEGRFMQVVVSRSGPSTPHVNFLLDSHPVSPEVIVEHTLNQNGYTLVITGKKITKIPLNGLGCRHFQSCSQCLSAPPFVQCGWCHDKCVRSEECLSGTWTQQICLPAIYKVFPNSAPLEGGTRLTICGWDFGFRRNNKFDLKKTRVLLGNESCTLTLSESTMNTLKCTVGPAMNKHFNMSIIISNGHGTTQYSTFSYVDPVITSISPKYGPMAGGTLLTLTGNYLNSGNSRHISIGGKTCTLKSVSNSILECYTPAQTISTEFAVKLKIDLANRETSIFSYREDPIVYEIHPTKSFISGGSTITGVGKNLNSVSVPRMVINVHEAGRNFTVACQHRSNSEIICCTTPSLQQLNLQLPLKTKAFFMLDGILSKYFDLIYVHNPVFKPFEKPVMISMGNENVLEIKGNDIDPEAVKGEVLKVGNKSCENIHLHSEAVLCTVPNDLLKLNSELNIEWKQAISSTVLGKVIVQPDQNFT

The source of these data is patent US20140221622A1.

The assay deals with biotin-labeled cMet (UniProt P08581). Nature of the assay: indirect ELISA: antibody captured on anti-IgG Fc coated plate, biotin-labeled cMet detected with streptavidin-HRP, OD450. On the technique in general: In an ELISA, binding on a coated surface is turned into a signal by an enzyme label.

B1: cMet AA4 Ig (antibody, human IgG1, kappa, V domains shown)
VH: QVQLQQSGPELVRPGASVKMSCRASGYTFTSYWLHWVKQRPGQGLEWIGMIDPSNSDTRFNPNFKDKATLNVDRSSNTAYMLLSSLTSADSAVYYCATYGSYAAPLDYWGQGTSVTVSS
VL: DFMMSQSPSSLTVSVGEKVTVSCKSSQSLLYTSSQKNYLAWYQQKPGQSPKLLIYWASTRESGVPDRFTGSGSGTDFTLTITSVKADDLAVYYCQQYYAYPWTFGGGTKLELKR
Consider B1, for which the binding entry is listed as “binds”.

B2: cMet AA1 Ig (antibody, human IgG1, kappa, V domains shown)
VH: QVQLQQSGPELVRPGASVKMSCRASGYTFTSYWLHWVKQRPGQGLEWIGMIDPSNSDTRFNPNFKDKATLNVDRSSNTAYMLLSSLTSADSAVYYCAAYGSYVSPLDYWGQGTSVTVSS
VL: DFMMSQSPSSLTVSVGEKVTVSCKSSQSLLYTSSQKNYLAWYQQKPGQSPKLLIYWASTRESGVPDRFTGSGSGTDFTLTITSVKADDLAVYYCQQYYAYPWTFGGGTKLELKR
As for B2, the binding result was “binds”.
